Some of the results follow. Residues, ends and D or L forms follow the SMILES beside them. *: point of attachment. Cbz = O=C(OCc1ccccc1)*
Experiments:
Experiment in all cases: log2 fold change, soluble protein after heating vs DMSO (PISA); higher = thermal stabilisation; K562 cells, 10 uM, 30 min; active = over 0.2 and 3.5 SD of the protein, either way, in both replicates (recomputed)
[1] = compound: C#Cc1cccc(Nc2ncnc3cc(OCCOC)c(OCCOC)cc23)c1 [erlotinib]
Procedure, shortened: (§1)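 Values are thermal stability changes relative to control samples and are taken from duplicates. They are stated as log2 fold changes. Before quantification by TMTpro 16plex LC-MS/MS with equalised channel sums, K562 cells at 2×10^6 cells/mL were treated with 10 μM compound for 30 min, heated in aliquots for 3 min across 48°C-58°C, pooled, extracted in PBS with 0.5% NP-40 at 4°C, and centrifuged at 21,000xg for 90 min to give the soluble supernatant.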

Chains of the proteins cited; added tags and fusions are not shown. Lines headed by an entry give the natural chain unless they say otherwise; changes in a name come on top.
UniProt P38117: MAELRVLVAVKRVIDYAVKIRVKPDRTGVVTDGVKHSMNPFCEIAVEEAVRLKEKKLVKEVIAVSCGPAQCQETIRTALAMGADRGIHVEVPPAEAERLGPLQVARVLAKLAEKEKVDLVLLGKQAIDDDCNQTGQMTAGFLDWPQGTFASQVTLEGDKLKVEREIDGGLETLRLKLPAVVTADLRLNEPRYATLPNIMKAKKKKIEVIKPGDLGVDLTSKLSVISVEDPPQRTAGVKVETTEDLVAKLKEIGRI
UniProt P15311, whole entry, looked up: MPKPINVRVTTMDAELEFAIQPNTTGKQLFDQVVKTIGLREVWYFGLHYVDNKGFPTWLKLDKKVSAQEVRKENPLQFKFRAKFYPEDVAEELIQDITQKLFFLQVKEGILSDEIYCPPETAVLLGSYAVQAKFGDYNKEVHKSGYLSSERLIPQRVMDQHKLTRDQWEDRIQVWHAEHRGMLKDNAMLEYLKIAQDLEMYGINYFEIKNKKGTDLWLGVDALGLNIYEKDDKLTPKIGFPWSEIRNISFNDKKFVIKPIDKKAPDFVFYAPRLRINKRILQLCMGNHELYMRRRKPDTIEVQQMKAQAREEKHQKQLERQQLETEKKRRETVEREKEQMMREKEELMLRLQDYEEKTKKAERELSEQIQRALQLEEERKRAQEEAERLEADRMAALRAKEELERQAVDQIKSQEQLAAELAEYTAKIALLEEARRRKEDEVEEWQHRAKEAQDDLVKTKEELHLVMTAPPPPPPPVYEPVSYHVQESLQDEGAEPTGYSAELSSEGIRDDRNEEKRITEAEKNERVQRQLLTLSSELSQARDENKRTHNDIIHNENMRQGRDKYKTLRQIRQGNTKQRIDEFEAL
UniProt Q96RT1: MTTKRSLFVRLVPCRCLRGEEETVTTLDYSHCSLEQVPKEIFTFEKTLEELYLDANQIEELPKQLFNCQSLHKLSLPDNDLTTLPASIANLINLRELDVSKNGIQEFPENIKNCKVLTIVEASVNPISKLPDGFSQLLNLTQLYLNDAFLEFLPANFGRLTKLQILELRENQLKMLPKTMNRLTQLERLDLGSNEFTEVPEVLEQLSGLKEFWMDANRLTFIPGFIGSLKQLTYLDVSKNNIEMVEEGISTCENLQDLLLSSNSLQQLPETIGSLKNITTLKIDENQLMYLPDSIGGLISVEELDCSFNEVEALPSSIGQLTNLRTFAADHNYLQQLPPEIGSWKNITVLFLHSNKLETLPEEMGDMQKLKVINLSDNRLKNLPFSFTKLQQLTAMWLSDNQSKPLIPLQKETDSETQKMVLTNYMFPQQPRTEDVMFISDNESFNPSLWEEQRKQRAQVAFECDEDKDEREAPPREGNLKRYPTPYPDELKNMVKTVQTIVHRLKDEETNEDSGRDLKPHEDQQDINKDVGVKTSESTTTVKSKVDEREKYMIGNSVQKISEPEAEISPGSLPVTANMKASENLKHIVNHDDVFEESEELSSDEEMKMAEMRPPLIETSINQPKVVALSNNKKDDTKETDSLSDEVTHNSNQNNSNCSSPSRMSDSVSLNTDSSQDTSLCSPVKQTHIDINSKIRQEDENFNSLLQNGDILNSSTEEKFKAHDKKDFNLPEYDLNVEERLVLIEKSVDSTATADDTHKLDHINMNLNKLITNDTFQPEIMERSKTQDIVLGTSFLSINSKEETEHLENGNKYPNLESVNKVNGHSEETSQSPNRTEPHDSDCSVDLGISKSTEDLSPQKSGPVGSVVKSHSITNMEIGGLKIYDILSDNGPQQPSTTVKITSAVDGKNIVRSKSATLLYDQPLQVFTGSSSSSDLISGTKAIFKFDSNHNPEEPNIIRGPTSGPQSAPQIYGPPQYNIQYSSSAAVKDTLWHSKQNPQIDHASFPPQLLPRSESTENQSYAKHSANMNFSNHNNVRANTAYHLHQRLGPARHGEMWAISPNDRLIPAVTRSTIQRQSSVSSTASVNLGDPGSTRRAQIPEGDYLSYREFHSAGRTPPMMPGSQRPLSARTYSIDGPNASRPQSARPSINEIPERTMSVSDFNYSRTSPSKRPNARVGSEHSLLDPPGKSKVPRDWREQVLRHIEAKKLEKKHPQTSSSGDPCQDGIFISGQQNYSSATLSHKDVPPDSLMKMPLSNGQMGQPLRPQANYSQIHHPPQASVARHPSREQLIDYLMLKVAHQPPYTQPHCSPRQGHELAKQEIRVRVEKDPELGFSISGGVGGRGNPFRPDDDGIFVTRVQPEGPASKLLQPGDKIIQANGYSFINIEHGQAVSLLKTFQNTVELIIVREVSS
UniProt Q8TBG4: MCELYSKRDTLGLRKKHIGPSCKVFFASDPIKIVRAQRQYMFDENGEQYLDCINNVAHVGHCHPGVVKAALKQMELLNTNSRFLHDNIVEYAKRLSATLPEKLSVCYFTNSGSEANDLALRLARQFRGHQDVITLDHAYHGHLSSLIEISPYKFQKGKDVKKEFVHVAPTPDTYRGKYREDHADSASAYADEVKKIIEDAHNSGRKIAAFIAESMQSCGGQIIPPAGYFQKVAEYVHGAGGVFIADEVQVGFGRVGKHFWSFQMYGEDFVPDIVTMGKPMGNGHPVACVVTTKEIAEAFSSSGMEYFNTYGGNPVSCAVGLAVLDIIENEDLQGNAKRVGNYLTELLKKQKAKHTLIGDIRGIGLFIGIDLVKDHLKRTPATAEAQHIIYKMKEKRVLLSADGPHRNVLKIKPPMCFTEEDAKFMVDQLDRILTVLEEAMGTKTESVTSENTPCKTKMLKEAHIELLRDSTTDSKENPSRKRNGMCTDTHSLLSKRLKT
UniProt Q96A26: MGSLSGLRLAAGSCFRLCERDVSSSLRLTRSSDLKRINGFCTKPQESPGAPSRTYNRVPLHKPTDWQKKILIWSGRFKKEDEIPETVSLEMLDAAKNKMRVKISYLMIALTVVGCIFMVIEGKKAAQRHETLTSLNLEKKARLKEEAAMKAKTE
UniProt Q13158: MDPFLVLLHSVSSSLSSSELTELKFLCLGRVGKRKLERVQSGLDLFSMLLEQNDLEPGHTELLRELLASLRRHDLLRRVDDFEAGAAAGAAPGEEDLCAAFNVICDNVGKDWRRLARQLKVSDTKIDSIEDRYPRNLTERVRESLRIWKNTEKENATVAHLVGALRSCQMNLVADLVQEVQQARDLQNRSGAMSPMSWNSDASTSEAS
UniProt P16930: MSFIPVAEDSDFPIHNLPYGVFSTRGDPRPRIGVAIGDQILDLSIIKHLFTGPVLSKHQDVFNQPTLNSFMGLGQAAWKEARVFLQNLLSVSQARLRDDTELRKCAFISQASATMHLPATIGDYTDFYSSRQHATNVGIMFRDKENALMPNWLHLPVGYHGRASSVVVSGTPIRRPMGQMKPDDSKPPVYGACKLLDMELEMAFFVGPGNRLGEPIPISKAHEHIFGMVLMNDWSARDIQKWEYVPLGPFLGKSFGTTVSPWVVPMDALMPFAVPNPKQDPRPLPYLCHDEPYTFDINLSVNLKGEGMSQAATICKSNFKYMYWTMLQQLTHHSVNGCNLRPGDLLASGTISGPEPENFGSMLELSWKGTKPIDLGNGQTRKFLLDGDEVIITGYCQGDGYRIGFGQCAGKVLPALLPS
UniProt Q96RQ1: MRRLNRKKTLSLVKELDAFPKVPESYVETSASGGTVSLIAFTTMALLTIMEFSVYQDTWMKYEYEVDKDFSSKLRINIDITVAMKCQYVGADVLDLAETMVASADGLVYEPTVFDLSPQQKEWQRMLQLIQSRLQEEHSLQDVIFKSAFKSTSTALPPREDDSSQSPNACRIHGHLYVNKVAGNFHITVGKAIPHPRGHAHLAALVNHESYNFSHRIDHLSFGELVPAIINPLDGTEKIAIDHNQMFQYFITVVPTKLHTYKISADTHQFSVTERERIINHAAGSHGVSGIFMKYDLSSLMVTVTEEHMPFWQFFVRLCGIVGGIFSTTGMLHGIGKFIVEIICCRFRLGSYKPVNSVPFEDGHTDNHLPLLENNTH
UniProt Q9GZU8: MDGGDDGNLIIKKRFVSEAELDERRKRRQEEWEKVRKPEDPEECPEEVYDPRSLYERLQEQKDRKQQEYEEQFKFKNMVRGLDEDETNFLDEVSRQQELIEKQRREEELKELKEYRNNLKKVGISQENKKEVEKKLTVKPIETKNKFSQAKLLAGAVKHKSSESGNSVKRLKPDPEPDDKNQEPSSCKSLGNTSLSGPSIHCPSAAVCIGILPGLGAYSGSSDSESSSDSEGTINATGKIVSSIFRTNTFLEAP
UniProt Q9UKR5: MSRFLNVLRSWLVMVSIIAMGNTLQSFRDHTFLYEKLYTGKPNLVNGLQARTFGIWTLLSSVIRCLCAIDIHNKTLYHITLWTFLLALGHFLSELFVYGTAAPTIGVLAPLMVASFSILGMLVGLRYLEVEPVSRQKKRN
UniProt O60645: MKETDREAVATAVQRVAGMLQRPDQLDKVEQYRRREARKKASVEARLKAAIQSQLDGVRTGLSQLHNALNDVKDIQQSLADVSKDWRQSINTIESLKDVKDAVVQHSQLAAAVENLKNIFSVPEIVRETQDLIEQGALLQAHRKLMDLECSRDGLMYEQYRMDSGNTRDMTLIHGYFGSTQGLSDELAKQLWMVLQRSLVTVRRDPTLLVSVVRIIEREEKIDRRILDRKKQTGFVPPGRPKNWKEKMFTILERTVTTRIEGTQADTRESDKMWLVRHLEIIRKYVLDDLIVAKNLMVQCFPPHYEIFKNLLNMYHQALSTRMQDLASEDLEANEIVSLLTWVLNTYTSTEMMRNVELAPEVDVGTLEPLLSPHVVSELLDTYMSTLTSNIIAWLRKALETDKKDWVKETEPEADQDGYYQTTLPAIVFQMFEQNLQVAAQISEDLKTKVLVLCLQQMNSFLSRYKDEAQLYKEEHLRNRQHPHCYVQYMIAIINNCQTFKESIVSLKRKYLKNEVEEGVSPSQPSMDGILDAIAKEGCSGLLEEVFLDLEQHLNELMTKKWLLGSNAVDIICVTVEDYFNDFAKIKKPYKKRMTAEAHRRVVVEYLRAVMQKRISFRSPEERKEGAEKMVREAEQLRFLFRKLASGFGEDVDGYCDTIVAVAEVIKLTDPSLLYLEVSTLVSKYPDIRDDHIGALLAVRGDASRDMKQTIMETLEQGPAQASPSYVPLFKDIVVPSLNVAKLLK
UniProt Q7Z2K6: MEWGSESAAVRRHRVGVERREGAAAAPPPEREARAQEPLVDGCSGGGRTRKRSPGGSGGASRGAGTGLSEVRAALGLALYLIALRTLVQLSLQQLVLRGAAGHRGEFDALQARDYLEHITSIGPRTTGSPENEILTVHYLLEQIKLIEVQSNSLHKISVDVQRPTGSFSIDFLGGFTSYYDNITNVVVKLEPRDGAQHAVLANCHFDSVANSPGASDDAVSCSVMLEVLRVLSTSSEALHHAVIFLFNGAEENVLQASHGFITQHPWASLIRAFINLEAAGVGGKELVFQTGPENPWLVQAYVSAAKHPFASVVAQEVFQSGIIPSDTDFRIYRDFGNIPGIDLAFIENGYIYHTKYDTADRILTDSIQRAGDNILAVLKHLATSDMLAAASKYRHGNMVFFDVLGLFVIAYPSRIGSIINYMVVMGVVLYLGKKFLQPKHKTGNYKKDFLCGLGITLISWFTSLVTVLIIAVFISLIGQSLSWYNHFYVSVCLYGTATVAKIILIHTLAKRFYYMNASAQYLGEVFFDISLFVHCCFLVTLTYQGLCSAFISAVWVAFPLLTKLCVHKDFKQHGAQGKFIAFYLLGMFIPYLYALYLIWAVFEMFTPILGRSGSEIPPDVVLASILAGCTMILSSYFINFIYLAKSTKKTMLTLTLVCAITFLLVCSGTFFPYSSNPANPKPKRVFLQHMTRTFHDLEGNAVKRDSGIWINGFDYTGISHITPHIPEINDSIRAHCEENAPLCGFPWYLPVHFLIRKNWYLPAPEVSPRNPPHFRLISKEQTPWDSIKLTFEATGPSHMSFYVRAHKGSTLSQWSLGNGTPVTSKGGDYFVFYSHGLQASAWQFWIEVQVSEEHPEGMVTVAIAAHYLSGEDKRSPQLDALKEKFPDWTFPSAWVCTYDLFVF
UniProt Q7L775: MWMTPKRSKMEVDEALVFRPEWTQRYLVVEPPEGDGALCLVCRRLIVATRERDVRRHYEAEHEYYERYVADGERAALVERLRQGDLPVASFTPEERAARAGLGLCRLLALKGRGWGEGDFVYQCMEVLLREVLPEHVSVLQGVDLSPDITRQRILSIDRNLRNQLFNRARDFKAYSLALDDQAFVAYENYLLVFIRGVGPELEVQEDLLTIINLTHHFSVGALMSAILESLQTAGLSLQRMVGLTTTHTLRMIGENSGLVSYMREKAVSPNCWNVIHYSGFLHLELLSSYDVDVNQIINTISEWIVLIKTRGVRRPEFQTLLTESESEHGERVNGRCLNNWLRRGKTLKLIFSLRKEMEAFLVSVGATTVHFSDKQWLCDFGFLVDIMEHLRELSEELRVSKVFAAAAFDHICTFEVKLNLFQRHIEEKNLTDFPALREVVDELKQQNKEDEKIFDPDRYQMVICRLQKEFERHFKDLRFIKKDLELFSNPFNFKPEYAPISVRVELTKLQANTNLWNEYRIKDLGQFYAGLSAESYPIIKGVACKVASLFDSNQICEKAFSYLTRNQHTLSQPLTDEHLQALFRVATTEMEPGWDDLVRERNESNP

[2] = compound: C/C(=N\NC(=O)C1=CC(=CC=C1)S(=O)(=O)N2CCOCC2)/C3=C(C=CC(=C3)Cl)O
Procedure, shortened: as §1

[3] = compound: C1=CC(=C(C=C1Cl)C2=NC3=NC=CN=C3C(=N2)NC4=CC=NC=C4)F
Procedure, shortened: as §1

[4] = compound: C1=CC(=CC=C1C2=NC3=C(N2)C=C(C=C3)C(=O)N)OC4=CC=C(C=C4)Cl
Procedure, shortened: as §1

[5] = compound: C1=CC2=C(C=CC(=C2)/C=C\3/C(=O)NC(=NCC4=CC=CS4)S3)N=C1
Procedure, shortened: as §1

[6] = compound: C1=CC2=NC=CN=C2C=C1/C=C/3\C(=O)NC(=O)S3
Procedure, shortened: as §1

[7] = compound: C1=CC=C(C=C1)C2=NC(=C(N2)C3=CC=NC=C3)C4=CC(=C(C=C4)Cl)O
Procedure, shortened: as §1

[8] = compound: C1=CC=C2C(=C1)C3=NNC4=CC=CC(=C43)C2=O
Procedure, shortened: as §1

[9] = compound: C1CCN(C1)C(=O)NC2=CC=CC(=C2)NC3=NC=C(C(=N3)NCCC4=CN=CN4)Br
Procedure, shortened: as §1

[10] = compound: C1CN(CCC1(CC2=CC=C(C=C2)Cl)N)C3=NC=NC4=C3C=CN4
Procedure, shortened: as §1

[11] = compound: C1COCCN1CCN2C3=CC=CC=C3N=C2NC(=O)C4=CC(=CC=C4)[N+](=O)[O-] [IRAK-1-4 Inhibitor I]
Procedure, shortened: as §1

[12] = compound: C=CC(=O)N1CCC[C@@H](n2nc(-c3ccc(Oc4ccccc4)cc3)c3c(N)ncnc32)C1 [ibrutinib]
Procedure, shortened: as §1

[13] = compound: CC(=O)c1cnc2ccc(-c3cc(Cl)c(O)c(Cl)c3)nc2c1N[C@H]1CC[C@H](CN(C)C)CC1
Procedure, shortened: as §1

[14] = compound: CC(C)(C)Cn1c(N)nc2ccc(-c3[nH]c(C(C)(C)C)nc3-c3ccc(F)cc3)nc21 [ralimetinib]
Procedure, shortened: as §1

[15] = compound: CC(C)(O)CC(=O)NCCn1ccc2ncnc(Nc3ccc(Oc4cccc(C(F)(F)F)c4)c(Cl)c3)c21
Procedure, shortened: as §1

[16] = compound: CC(C)C1=C2N=C(C=C(N2N=C1)NCC3=CC=CC=C3)NCCCCCCN
Procedure, shortened: as §1

[17] = compound: CC(C)C[C@@H](C=O)NC(=O)[C@H](CC(C)C)NC(=O)[C@H](CC(C)C)NC(=O)OCc1ccccc1
Procedure, shortened: as §1

[18] = compound: CC(C)N(C[C@H]1O[C@@H](n2cnc3c(N)ncnc32)[C@H](O)[C@@H]1O)[C@H]1C[C@@H](CCc2nc3cc(C(C)(C)C)ccc3[nH]2)C1 [pinometostat]
Procedure, shortened: as §1

[19] = compound: CC1=C(C(CC(=O)N1)C2=CC=C(C=C2)C(F)(F)F)C(=O)NC3=C(C=C4C(=C3)C=NN4)F
Procedure, shortened: as §1

[20] = compound: CC1=C(C2=C(C=C1)C(=O)C3=CC=CC=C3N2CCCN)C
Procedure, shortened: as §1

Measured: log2 fold change

ETFB (UniProt P38117)
inactive: [1] 0.05 | [2] -0.026 | [3] 0.071 | [4] -0.057 | [5] -0.016 | [6] 0.009 | [7] 0.006 | [8] 0.013 | [9] 0.056 | [10] 0.022 | [11] 0.071 | [12] 0.006 | [13] -0.005 | [14] -0.094 | [15] 0.057 | [16] -0.002 | [17] 0.01 | [18] -0.035 | [19] 0.01 | [20] 0.003

EZR (UniProt P15311)
inactive: [1] -0.042 | [2] 0.058 | [3] 0.035 | [4] -0.023 | [5] 0.004 | [6] 0.015 | [7] 0.02 | [8] 0.022 | [9] -0.003 | [10] -0.022 | [11] 0.023 | [12] -0.021 | [13] 0.056 | [14] -0.014 | [15] 0.044 | [16] 0.055 | [17] -0.011 | [18] -0.101 | [19] -0.034 | [20] 0.017

ERBIN isoform 8 (UniProt Q96RT1)
inactive: [1] 0.068 | [2] 0.052 | [3] 0.009 | [4] 0.051 | [5] -0.031 | [6] 0.023 | [7] 0.118 | [8] -0.018 | [9] -0.006 | [10] 0.02 | [11] -0.008 | [12] 0.013 | [13] -0.108 | [14] 0.029 | [15] -0.046 | [16] -0.123 | [17] 0.052 | [18] -0.003 | [19] -0.014 | [20] 0.007

EPCAM (UniProt P16422)
inactive: [1] -0.028 | [2] 0.072 | [3] -0.017 | [4] 0.019 | [5] -0.042 | [6] -0.032 | [7] -0.049 | [8] -0.044 | [9] -0.11 | [10] 0.031 | [11] 0.056 | [12] 0.024 | [13] 0.008 | [14] 0.011 | [15] 0.008 | [16] 0.079 | [17] 0.078 | [18] -0.012 | [19] -0.033 | [20] 0.002

ETNPPL (UniProt Q8TBG4)
inactive: [1] -0.225 | [2] 0.019 | [3] 0.052 | [4] 0.104 | [5] 0.106 | [6] -0.013 | [7] -0.133 | [8] -0.186 | [9] 0.09 | [10] 0.111 | [11] -0.225 | [12] 0.007 | [13] 0.077 | [14] -0.068 | [15] 0.12 | [16] 0.151 | [17] 0.03 | [18] -0.012 | [19] -0.046 | [20] -0.042

FAM136A (UniProt Q96C01)
inactive: [1] 0 | [2] -0.015 | [3] 0.055 | [4] -0.012 | [5] 0.029 | [6] 0.081 | [7] 0.027 | [8] -0.012 | [9] -0.018 | [10] -0.043 | [11] -0.033 | [12] -0.019 | [13] -0.009 | [14] -0.066 | [15] 0.013 | [16] 0.049 | [17] -0.075 | [18] -0.115 | [19] 0.057 | [20] 0.122

FAM162A (UniProt Q96A26)
inactive: [1] -0.005 | [2] 0.069 | [3] -0.002 | [4] 0.034 | [5] 0.108 | [6] 0.007 | [7] -0.018 | [8] -0.012 | [9] -0.028 | [10] -0.052 | [11] 0.044 | [12] 0.036 | [13] -0.066 | [14] -0.022 | [15] -0.008 | [16] -0.014 | [17] -0.034 | [18] 0.006 | [19] 0.007 | [20] 0.179

FADD (UniProt Q13158)
inactive: [1] 0.086 | [2] 0.018 | [3] 0.048 | [4] -0.063 | [5] 0.08 | [6] 0.079 | [7] -0.008 | [8] 0.07 | [9] 0.034 | [10] 0.011 | [11] -0.001 | [12] -0.041 | [13] -0.084 | [14] 0.021 | [15] 0.085 | [16] 0.028 | [17] 0.045 | [18] 0.14 | [19] -0.073 | [20] 0.069

FAH (UniProt P16930)
inactive: [1] -0.049 | [2] 0.001 | [3] 0.019 | [4] 0.043 | [5] 0.014 | [6] 0.005 | [7] 0.01 | [8] -0.027 | [9] -0.001 | [10] 0.037 | [11] 0.044 | [12] 0.035 | [13] -0.032 | [14] -0.042 | [15] 0.022 | [16] 0.056 | [17] -0.063 | [18] -0.032 | [19] 0.045 | [20] 0.002

ERGIC2 (UniProt Q96RQ1)
inactive: [1] 0.033 | [2] 0.076 | [3] 0.011 | [4] 0.04 | [5] 0.082 | [6] 0.028 | [7] 0.003 | [8] -0.037 | [9] 0.037 | [10] 0.064 | [11] -0.02 | [12] 0.019 | [13] -0.015 | [14] -0.139 | [15] -0.085 | [16] -0.133 | [17] 0.008 | [18] 0.003 | [19] -0.022 | [20] 0.065

FAM192A (UniProt Q9GZU8)
inactive: [1] 0.006 | [2] -0.007 | [3] 0.018 | [4] 0.02 | [5] 0.006 | [6] 0.027 | [7] -0.047 | [8] -0.049 | [9] 0.019 | [10] 0.037 | [11] 0.03 | [12] -0.016 | [13] 0.037 | [14] -0.069 | [15] 0.011 | [16] 0.025 | [17] 0.007 | [18] -0.027 | [19] 0.027 | [20] -0.012

ERG28 (UniProt Q9UKR5)
inactive: [1] -0.114 | [2] -0.12 | [3] 0.103 | [4] 0.066 | [5] -0.11 | [6] 0.056 | [7] 0.019 | [8] 0.1 | [9] -0.068 | [10] 0.229 | [11] -0.256 | [12] 0.006 | [13] 0.208 | [14] 0.006 | [15] 0.106 | [16] 0.036 | [17] -0.062 | [18] 0.019 | [19] 0.065 | [20] -0.107

EXOC3 (UniProt O60645)
inactive: [1] 0.065 | [2] 0.03 | [3] -0.022 | [4] -0.103 | [5] 0.052 | [6] -0.025 | [7] 0.011 | [8] 0.005 | [9] -0.044 | [10] -0.094 | [11] 0 | [12] 0.048 | [13] -0.029 | [14] 0.11 | [15] -0.088 | [16] -0.36 | [17] 0.033 | [18] 0.068 | [19] 0.07 | [20] 0.004

FAH isoform 2 (UniProt P16930)
inactive: [1] 0.017 | [2] -0.025 | [3] 0.171 | [4] -0.07 | [5] 0.091 | [6] 0.086 | [7] -0.128 | [8] 0 | [9] 0.054 | [10] 0.117 | [11] -0.023 | [12] -0.192 | [13] -0.004 | [14] 0.034 | [15] -0.027 | [16] 0.06 | [17] -0.184 | [18] -0.026 | [19] 0.108 | [20] 0.003

ERMP1 (UniProt Q7Z2K6)
inactive: [1] -0.002 | [2] 0.014 | [3] 0 | [4] -0.004 | [5] -0.003 | [6] 0.025 | [7] 0.023 | [8] -0.022 | [9] -0.008 | [10] 0.044 | [11] 0.009 | [12] 0.027 | [13] 0.009 | [14] -0.056 | [15] 0.004 | [16] -0.009 | [17] -0.03 | [18] -0.054 | [19] 0.018 | [20] 0.019

EPM2AIP1 (UniProt Q7L775)
inactive: [1] 0.021 | [2] 0.03 | [3] -0.005 | [4] 0.012 | [5] 0.05 | [6] 0.024 | [7] -0.039 | [8] -0.036 | [9] -0.025 | [10] 0.024 | [11] 0.003 | [12] -0.004 | [13] -0.016 | [14] -0.037 | [15] -0.019 | [16] -0.028 | [17] -0.002 | [18] 0.009 | [19] 0.009 | [20] 0.006
